Experimental data from PMC9068788.
These are yes or no findings as the source states them, for the method shown. In cells and extracts the contact can be indirect. Some entries that bind do so weakly or less than the wild type.

Sequences of proteins named here, by UniProt entry; tags and fusion partners are left off.
UniProt Q8NFU7: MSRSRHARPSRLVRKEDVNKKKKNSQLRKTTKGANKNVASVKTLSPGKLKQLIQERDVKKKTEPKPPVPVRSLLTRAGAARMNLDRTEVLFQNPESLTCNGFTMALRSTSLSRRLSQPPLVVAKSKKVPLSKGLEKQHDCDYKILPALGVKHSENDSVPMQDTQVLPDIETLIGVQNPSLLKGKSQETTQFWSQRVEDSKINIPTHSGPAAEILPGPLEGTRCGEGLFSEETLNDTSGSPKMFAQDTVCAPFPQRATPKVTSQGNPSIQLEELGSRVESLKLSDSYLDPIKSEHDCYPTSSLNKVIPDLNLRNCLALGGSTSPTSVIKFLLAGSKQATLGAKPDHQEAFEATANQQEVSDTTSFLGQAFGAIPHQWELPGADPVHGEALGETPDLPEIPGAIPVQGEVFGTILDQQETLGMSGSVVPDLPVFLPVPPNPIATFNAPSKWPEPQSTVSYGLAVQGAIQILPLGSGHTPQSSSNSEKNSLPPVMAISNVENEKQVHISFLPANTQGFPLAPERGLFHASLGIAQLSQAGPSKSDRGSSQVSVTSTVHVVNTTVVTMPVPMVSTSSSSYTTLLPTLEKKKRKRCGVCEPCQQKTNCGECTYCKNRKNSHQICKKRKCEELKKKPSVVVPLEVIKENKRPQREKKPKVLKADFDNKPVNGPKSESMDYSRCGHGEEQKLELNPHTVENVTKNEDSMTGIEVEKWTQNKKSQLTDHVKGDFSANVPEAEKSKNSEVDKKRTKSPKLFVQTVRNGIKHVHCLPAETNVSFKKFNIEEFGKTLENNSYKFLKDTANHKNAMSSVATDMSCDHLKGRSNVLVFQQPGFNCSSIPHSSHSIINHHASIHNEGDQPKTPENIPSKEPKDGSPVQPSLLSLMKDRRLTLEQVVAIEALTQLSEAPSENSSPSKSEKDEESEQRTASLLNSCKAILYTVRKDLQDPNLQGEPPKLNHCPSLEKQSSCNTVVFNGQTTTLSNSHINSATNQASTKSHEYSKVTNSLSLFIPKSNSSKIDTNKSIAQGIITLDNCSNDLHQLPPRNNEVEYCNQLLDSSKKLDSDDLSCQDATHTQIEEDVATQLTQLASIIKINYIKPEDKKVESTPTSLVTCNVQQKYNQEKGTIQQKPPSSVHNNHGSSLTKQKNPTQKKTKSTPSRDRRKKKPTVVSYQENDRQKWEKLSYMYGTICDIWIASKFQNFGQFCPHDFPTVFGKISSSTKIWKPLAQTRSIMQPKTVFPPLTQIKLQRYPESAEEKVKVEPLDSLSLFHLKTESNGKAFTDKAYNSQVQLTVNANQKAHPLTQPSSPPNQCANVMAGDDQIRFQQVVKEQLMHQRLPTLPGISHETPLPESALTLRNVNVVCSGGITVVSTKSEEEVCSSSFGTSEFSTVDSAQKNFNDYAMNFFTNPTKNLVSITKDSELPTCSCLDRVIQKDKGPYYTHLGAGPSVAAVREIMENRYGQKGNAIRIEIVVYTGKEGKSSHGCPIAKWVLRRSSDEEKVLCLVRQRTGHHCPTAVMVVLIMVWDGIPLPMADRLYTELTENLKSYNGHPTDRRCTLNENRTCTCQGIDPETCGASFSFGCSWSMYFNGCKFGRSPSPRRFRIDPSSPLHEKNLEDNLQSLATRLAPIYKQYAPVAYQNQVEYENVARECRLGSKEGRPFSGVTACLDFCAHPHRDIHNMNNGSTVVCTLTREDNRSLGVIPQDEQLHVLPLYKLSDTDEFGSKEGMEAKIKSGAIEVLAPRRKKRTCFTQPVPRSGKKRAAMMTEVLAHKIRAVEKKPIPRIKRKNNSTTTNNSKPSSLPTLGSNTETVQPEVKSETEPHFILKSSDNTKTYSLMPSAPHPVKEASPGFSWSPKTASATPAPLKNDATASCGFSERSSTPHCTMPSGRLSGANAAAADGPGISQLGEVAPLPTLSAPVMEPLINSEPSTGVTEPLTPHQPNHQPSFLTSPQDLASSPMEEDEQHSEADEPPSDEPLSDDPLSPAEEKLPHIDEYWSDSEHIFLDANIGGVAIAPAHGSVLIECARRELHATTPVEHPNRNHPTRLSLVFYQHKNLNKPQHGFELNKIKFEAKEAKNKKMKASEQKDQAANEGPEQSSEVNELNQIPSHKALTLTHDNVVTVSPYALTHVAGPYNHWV
UniProt O43151: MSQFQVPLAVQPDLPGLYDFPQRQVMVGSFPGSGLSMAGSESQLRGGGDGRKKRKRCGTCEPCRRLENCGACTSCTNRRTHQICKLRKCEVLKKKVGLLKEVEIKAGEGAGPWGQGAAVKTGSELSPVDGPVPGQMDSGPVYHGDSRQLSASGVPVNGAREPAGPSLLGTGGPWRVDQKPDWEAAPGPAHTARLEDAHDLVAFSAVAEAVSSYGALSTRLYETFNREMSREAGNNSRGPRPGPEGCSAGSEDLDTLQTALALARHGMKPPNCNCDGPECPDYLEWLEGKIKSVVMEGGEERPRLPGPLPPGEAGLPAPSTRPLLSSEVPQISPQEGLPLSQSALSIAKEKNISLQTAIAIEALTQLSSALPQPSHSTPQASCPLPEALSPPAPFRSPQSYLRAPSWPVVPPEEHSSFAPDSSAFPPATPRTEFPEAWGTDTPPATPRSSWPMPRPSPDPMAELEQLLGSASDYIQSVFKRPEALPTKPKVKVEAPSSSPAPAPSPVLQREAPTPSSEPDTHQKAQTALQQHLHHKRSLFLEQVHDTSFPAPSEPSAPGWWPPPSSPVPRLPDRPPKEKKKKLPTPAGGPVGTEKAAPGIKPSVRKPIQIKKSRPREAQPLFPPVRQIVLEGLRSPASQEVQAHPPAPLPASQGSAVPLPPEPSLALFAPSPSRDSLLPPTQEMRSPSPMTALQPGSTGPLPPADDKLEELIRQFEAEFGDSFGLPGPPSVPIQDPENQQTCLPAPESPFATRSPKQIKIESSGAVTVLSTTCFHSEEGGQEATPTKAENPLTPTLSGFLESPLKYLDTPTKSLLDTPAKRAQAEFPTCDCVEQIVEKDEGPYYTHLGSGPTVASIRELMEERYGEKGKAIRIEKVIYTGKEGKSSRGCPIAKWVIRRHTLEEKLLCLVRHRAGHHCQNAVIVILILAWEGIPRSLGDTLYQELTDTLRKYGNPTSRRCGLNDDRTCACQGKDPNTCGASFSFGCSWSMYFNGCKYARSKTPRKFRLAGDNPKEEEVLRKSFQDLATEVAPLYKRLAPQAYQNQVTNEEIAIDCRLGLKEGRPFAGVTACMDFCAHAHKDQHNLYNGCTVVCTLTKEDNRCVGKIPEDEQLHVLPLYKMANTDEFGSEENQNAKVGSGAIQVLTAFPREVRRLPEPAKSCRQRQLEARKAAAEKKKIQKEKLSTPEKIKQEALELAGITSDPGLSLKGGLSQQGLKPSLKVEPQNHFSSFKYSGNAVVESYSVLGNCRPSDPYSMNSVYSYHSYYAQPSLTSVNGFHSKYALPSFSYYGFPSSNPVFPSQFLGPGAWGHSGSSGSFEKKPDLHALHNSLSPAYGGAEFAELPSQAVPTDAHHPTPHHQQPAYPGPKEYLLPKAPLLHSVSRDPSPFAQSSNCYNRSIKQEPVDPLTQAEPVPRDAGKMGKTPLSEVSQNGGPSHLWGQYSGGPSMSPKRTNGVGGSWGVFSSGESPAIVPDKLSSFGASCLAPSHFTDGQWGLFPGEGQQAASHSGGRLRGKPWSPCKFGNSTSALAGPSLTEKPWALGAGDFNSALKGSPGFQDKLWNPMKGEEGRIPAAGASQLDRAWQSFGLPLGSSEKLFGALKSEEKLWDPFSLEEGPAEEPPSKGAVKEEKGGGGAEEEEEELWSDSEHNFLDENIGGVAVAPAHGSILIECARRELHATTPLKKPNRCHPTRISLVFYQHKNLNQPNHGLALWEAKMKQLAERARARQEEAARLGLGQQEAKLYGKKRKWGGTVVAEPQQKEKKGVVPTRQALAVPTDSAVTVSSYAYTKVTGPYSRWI
UniProt Q92908: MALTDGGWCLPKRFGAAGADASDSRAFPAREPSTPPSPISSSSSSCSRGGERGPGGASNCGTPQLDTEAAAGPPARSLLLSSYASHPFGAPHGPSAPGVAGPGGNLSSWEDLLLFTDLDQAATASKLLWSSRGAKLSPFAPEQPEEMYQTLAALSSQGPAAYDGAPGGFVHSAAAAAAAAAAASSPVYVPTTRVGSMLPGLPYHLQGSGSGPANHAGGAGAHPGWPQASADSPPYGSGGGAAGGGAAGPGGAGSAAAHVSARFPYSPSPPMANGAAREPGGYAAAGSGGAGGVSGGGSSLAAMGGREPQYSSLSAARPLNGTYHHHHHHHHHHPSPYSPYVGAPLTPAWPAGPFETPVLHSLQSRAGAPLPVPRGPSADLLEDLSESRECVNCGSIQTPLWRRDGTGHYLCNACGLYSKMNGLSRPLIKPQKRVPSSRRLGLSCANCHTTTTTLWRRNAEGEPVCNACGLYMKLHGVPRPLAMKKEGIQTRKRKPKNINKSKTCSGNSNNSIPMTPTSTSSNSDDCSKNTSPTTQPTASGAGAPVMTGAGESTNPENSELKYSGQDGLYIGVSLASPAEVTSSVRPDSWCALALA

Key:
Experiment in all cases: pull-down; HaloTag Mammalian Pull-Down System (Promega) from HEK293T cells co-transfected with HaloTag-fused TET1, TET2 or TET3 and pCDNA3.2-GATA6, collected 2 days after transfection; immunoblot with anti-GATA6 antibody
HaloTag-fused TET1 = HaloTag-fused TET1 (UniProt Q8NFU7)
HaloTag-fused TET2 = HaloTag-fused TET2 (UniProt Q6N021)
HaloTag-fused TET3 = HaloTag-fused TET3 (UniProt O43151)

Measured: binding

GATA6 (from UniProt Q92908 1-595)
binds: HaloTag-fused TET1 | HaloTag-fused TET2 | HaloTag-fused TET3
